Earlier results, collected in patent US8846083B2, “Method for the diffusion of molecules which are insoluble in an aqueous medium and composition using said method” (priority 2004, dated 2014).

Question: For `CC(C)Cc1ccc(C(C)C(=O)O)cc1` (stereo not shown) [ibuprofen], which solubility in water is on record?
Answer: virtually insoluble in water
